Results on one molecule are retold here after patent publication US20210009982A1.

These are yes or no findings as the source states them, for the method shown. Some binding calls cover weakened binding; strength is not graded here. Where a sequence is shown, tags or fusion partners need not be part of it.

For the test, the target named is T1, mini cellulose-binding protein A (mCbpA) (Clostridium cellulovorans) (UniProt P38058).
T1 sequence (looked up): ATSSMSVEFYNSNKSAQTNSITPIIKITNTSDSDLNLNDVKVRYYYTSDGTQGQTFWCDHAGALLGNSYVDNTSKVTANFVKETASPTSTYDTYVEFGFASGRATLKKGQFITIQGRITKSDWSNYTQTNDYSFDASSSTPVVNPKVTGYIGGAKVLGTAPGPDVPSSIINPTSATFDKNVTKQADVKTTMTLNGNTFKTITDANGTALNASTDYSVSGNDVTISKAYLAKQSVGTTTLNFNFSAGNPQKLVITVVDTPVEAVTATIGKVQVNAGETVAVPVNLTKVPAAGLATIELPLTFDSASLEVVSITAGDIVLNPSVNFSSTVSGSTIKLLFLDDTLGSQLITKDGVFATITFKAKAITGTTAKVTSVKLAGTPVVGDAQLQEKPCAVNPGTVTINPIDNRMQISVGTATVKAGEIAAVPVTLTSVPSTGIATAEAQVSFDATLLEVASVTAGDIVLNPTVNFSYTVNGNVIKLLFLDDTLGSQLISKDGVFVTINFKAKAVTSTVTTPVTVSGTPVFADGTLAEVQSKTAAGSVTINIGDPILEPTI
Nature of the test: complex formed by mixing 10 nmol of each in 25 mM CaCl2 at 4 °C for 24 h; binding inferred from increased tagatose conversion activity, no direct binding assay.

B1: arabinose isomerase (LsAraA) linked with the dockerin module of the endo-β-1,4-glucanase B gene (enzyme, Clostridium cellulovorans, not shown: small tags and cut ends)
chain: SLSARVSFKKHVKKGVFIMLNTENYEFWFVTGSQSLYGEETLRSVEKDAKEIVEKLNASRQLPYPIVFKLVATTADNITKVMKEANYNDHVAGVITWMHTFSPAKNWIRGTKLLQKPLLHLATQFLNKIPYDTIDFDYMNLNQSAHGDREYAFINARLRKNNKIISGYWGDEDVQKAMAKWMDVAVAYNESFKIKVVTFADKMRNVAVTDGDKVEAQIKFGWTVDYWGVGDLVAEVNAVSEADIDAKYADLQKEYDFVEGQNTPEKFEHNVKYQIREYFGLKKFMDDRGYTAFTTNFEDLVGLEQLPGLAAQLLMAEGYGFAGEGDWKTAALDRLLKIMAHNEKTVFMEDYTLDLRQGHEAILGSHMLEVDPSIASDKPRVEVHPLDIGDKDDPARLVFTGMQGDAVDVTMADYGDEFKLMSYDVRGNKPEADTPHLPVAKQLWTPKQGLREGAVGWLTVGGGHHTVLSFAVDSEQLQDLSHLFDLTYVNIKTQTQTSYSLGDVNKDGKVNAIDYAVLKSILLGTNTNVDLSVSDMNKDGKVNALDLAVLKKMLLS
Regarding B1, the binding result is “binds”.
